According to the supplement of paper PMC10849652:
This is one part of the list.

Sequences of proteins named here, by UniProt entry; tags and fusion partners are left off. A change or cut given only in a name is not applied to a line headed by its entry.
UniProt Q9BUT9: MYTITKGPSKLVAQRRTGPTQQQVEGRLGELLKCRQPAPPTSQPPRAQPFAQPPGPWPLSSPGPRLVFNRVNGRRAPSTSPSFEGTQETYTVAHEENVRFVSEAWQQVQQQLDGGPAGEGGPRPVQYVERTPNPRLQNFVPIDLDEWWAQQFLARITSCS
UniProt Q9BUE0: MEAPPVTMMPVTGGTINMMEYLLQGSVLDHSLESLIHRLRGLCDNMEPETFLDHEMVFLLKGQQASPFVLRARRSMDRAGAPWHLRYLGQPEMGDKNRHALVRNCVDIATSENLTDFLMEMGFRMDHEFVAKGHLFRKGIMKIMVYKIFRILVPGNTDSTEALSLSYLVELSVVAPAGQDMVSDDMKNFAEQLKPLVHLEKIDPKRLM
UniProt P61244, whole entry, looked up: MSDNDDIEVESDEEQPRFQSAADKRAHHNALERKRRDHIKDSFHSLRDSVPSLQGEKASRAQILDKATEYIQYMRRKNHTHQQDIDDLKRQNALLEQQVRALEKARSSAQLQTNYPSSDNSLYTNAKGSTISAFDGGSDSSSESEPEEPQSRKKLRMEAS
UniProt Q07820, whole entry, looked up: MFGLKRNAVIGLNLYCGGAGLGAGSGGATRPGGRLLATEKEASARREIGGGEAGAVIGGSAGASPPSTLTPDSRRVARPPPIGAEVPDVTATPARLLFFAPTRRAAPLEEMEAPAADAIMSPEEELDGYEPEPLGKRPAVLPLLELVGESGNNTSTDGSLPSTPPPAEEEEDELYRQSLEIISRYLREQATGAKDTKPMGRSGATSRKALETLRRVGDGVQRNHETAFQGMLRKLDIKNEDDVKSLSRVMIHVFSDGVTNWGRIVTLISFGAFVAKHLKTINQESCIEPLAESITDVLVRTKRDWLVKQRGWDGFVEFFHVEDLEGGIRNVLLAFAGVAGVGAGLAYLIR
UniProt Q9Y316: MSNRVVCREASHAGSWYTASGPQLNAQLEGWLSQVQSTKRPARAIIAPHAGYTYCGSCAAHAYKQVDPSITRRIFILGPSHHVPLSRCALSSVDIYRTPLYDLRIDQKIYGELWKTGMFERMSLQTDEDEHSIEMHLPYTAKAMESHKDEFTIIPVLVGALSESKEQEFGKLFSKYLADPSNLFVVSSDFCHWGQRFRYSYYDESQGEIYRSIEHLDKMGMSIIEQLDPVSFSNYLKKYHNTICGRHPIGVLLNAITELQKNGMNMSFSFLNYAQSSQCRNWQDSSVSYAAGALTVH
UniProt Q96G25: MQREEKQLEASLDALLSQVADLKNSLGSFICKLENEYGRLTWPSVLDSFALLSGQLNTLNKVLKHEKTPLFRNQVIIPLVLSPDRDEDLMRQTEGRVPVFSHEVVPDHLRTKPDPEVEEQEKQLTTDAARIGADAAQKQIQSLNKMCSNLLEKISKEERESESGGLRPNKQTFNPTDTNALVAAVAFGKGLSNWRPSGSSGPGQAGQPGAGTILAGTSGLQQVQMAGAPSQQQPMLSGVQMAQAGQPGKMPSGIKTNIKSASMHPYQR
UniProt Q96N66: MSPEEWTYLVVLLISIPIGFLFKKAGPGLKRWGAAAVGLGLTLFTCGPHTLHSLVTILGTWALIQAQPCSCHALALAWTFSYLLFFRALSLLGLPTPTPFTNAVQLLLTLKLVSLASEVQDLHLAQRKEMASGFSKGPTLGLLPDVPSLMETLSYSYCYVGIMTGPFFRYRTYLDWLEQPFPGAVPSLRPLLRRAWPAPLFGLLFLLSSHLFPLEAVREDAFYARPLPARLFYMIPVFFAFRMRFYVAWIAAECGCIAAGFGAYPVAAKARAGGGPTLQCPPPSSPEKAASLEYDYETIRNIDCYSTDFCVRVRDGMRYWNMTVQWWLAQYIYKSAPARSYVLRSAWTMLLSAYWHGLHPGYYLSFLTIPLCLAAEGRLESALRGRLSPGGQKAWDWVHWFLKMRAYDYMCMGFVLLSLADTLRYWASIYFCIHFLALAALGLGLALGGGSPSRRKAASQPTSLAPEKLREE
UniProt Q6P9B6: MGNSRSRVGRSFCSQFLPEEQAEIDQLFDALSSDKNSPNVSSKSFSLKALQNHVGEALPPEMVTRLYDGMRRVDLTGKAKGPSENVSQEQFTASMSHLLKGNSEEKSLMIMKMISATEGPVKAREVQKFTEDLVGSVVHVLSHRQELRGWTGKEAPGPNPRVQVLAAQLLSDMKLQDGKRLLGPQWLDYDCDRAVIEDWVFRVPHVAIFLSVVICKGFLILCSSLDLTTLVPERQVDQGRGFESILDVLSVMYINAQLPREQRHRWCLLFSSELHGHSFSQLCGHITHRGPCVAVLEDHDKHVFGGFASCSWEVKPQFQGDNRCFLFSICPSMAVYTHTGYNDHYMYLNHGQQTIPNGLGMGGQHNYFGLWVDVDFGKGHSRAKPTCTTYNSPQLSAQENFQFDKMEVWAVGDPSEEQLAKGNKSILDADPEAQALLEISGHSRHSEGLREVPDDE
UniProt Q9NVC6: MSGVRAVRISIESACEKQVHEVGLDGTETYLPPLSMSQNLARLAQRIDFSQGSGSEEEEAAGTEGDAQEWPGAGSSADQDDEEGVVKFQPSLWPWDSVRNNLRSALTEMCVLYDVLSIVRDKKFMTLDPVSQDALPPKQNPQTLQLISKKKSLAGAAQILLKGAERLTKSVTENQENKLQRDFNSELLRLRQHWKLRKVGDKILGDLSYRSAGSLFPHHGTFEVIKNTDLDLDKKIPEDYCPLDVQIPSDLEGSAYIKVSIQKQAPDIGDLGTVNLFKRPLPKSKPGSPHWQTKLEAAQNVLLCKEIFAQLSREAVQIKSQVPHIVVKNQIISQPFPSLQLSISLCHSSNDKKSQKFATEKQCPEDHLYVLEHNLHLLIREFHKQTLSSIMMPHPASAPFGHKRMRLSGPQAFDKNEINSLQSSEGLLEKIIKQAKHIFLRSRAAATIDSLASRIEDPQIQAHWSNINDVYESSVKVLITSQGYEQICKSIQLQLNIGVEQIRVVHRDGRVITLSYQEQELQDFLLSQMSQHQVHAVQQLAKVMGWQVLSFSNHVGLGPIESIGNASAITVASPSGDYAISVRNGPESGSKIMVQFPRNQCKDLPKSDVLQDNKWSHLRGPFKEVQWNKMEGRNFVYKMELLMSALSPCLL
UniProt Q8IVS2: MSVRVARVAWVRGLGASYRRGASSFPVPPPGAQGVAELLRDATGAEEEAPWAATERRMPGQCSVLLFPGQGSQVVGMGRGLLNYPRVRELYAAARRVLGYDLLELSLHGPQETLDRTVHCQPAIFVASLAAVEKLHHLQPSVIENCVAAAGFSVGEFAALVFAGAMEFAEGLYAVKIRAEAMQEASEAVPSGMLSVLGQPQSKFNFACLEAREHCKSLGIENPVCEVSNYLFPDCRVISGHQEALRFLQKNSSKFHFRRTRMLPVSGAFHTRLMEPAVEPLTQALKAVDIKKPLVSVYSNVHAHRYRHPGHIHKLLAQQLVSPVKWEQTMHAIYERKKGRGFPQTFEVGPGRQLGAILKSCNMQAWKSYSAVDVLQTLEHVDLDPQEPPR
UniProt Q9H3U5: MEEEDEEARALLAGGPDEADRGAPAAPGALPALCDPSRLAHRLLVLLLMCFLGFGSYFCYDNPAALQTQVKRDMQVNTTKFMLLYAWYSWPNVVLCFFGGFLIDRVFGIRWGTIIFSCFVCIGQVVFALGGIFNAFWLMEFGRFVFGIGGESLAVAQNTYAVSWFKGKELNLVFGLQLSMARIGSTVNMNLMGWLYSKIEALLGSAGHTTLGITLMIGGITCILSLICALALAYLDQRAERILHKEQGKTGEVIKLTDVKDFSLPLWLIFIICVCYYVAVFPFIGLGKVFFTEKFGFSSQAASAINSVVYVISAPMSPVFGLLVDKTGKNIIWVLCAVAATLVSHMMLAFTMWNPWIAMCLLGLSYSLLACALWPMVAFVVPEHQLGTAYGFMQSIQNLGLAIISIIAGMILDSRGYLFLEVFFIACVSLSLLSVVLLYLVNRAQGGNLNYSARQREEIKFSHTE
UniProt O95568: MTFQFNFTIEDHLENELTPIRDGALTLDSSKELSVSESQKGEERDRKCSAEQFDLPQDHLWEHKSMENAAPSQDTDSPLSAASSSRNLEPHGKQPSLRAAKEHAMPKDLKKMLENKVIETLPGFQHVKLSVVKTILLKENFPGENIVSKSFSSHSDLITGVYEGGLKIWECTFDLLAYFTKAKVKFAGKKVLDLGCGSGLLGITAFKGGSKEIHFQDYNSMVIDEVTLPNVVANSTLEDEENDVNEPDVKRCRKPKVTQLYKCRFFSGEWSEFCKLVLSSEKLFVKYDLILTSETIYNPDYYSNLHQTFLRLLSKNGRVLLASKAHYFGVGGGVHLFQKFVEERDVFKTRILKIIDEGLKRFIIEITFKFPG
UniProt O14770: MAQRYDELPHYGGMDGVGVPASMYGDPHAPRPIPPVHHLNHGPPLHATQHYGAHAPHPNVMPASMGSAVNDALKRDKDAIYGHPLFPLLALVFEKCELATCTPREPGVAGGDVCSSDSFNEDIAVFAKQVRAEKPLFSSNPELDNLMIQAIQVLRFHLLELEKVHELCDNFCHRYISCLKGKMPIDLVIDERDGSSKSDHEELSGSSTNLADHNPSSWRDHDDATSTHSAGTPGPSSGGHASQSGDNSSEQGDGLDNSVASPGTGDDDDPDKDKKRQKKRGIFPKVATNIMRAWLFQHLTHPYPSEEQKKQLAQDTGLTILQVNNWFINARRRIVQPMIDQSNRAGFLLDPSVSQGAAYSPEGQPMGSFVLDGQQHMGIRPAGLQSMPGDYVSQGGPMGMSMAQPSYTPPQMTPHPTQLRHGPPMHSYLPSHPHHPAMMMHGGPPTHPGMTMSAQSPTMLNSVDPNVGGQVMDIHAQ
UniProt Q96HR3: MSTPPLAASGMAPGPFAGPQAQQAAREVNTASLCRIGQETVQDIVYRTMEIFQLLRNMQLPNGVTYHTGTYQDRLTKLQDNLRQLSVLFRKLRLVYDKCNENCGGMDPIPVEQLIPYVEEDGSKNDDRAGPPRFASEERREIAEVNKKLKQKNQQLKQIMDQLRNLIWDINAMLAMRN
UniProt Q86U44, whole entry, looked up: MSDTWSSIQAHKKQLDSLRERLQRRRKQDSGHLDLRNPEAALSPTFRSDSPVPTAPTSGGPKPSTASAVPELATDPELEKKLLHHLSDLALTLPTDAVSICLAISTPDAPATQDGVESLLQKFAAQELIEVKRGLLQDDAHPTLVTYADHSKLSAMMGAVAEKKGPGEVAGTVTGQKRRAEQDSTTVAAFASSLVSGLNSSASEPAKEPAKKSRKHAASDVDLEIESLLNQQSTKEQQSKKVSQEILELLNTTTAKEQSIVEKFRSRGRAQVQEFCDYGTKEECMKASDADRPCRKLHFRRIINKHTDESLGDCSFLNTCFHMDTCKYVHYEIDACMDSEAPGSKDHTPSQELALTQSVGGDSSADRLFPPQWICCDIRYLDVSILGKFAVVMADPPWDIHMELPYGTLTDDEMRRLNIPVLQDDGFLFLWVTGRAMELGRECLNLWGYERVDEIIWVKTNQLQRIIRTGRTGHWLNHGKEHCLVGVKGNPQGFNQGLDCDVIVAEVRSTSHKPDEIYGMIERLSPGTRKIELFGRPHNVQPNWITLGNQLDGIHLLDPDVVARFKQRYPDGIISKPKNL

How the values were obtained:
Test in all cases: log2 fold change, soluble protein after heating vs DMSO (PISA); higher = thermal stabilisation; K562 lysate, 10 uM; active = over 0.2 and 3.5 SD of the protein, either way, in both replicates (recomputed)
vemurafenib = compound: CCCS(=O)(=O)Nc1ccc(F)c(C(=O)c2c[nH]c3ncc(-c4ccc(Cl)cc4)cc23)c1F [vemurafenib]
In short: (§1)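 A 30 min treatment with 10 μM compound was applied to crude K562 extract at 1 mg/mL protein in PBS pH 7.4 with 1 mM MgCl2. Heating for 3 min spanned 48°C-58°C, after which aliquots were pooled, adjusted to 0.5% NP-40 at 4°C and spun at 21,000xg for 90 min. TMTpro 16plex LC-MS/MS of the supernatant, with channel sums equalised, gave values recorded as log-two fold change in thermal stability against solvent controls, from duplicates.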

[1] = compound: CCCS(=O)(=O)Nc1ccc(F)c(C(=O)c2c[nH]c3ncc(Cl)cc23)c1F
In short: as §1

barasertib = compound: CCN(CCCOc1ccc2c(Nc3cc(CC(=O)Nc4cccc(F)c4)[nH]n3)ncnc2c1)CCOP(=O)(O)O [barasertib]
In short: as §1

[2] = compound: CC[C@@H]1C(=O)N(C)c2cnc(Nc3ccc(C(=O)NC4CCN(C)CC4)cc3OC)nc2N1C1CCCC1
In short: as §1

volasertib = compound: CC[C@@H]1C(=O)N(C)c2cnc(Nc3ccc(C(=O)N[C@H]4CC[C@H](N5CCN(CC6CC6)CC5)CC4)cc3OC)nc2N1C(C)C [volasertib]
In short: as §1

[3] = compound: CCn1c(C(=O)N(C2CC2)C2CC2)cc2c3c(ncn3C)c(Nc3cc(C)n(C)n3)nc21
In short: as §1

[4] = compound: CCn1cc(-c2ccnc3[nH]c(-c4cccc(CN(C)C)c4)cc23)c(-c2ccc(NC(=O)N(C)C)cc2)n1
In short: as §1

[5] = compound: CN1CCC(CNc2ccc3ncc(-c4cccc(OC(F)(F)F)c4)n3n2)CC1
In short: as §1

saracatinib = compound: CN1CCN(CCOc2cc(OC3CCOCC3)c3c(Nc4c(Cl)ccc5c4OCO5)ncnc3c2)CC1 [saracatinib]
In short: as §1

sotrastaurin = compound: CN1CCN(c2nc(C3=C(c4c[nH]c5ccccc45)C(=O)NC3=O)c3ccccc3n2)CC1 [sotrastaurin]
In short: as §1

alvocidib = compound: CN1CC[C@H](c2c(O)cc(O)c3c(=O)cc(-c4ccccc4Cl)oc23)[C@H](O)C1 [alvocidib]
In short: as §1

Tubastatin A = compound: CN1CCc2c(c3ccccc3n2Cc2ccc(C(=O)NO)cc2)C1 [Tubastatin A]
In short: as §1

[6] = compound: CNC(=O)C1=CC=CC=C1NC2=NC(=NC=C2Cl)NC3=C(C=C(C=C3)N4CCOCC4)OC
In short: as §1

defactinib = compound: CNC(=O)c1ccc(Nc2ncc(C(F)(F)F)c(NCc3nccnc3N(C)S(C)(=O)=O)n2)cc1 [defactinib]
In short: as §1

[7] = compound: CNc1nc(-c2ccc3c(N)n[nH]c3c2)cc(N2C[C@@H](C(=O)NC3CCCCC3)CC[C@H]2C)n1
In short: as §1

encorafenib = compound: COC(=O)N[C@@H](C)CNc1nccc(-c2cn(C(C)C)nc2-c2cc(Cl)cc(NS(C)(=O)=O)c2F)n1 [encorafenib]
In short: as §1

[8] = compound: COC(=O)[C@H](CCSC)NC(=O)C1=C(C=C(C=C1)NC[C@H](CS)N)C2=CC=CC=C2
In short: as §1

alisertib = compound: COc1cc(Nc2ncc3c(n2)-c2ccc(Cl)cc2C(c2c(F)cccc2OC)=NC3)ccc1C(=O)O [alisertib]
In short: as §1

[9] = compound: COc1cc2nc(-c3cc(F)ccc3O)nc(N[C@@H]3CNC[C@H]3C(C)(C)O)c2cc1OC
In short: as §1

gefitinib = compound: COc1cc2ncnc(Nc3ccc(F)c(Cl)c3)c2cc1OCCCN1CCOCC1 [gefitinib]
In short: as §1

Measured: log2 fold change

MCRIP2 (UniProt Q9BUT9)
inactive: vemurafenib 0.069 | [1] -0.008 | barasertib -0.005 | [2] 0.119 | volasertib -0.013 | [3] -0.179 | [4] 0.062 | [5] -0.011 | saracatinib 0.125 | sotrastaurin -0.12 | alvocidib 0.014 | Tubastatin A -0.001 | [6] 0.032 | defactinib 0.032 | [7] 0.061 | encorafenib -0.04 | [8] 0.034 | alisertib -0.034 | [9] 0.044 | gefitinib -0.049

MED18 (UniProt Q9BUE0)
inactive: vemurafenib -0.031 | [1] -0.004 | barasertib 0.018 | [2] 0.007 | volasertib -0.026 | [3] 0.002 | [4] 0.043 | [5] -0.175 | saracatinib 0.013 | sotrastaurin -0.031 | alvocidib 0.052 | Tubastatin A -0.017 | [6] -0.024 | defactinib 0.014 | [7] -0.037 | encorafenib -0.028 | [8] -0.022 | alisertib -0.034 | [9] 0.007 | gefitinib -0.054

MAX (UniProt P61244)
inactive: vemurafenib 0.01 | [1] 0.008 | barasertib -0.106 | [2] -0.037 | volasertib 0.054 | [3] -0.001 | [4] 0.081 | [5] 0.003 | saracatinib -0.017 | sotrastaurin 0.035 | alvocidib -0.021 | Tubastatin A 0.072 | [6] -0.029 | defactinib -0.021 | [7] 0.017 | encorafenib 0.009 | [8] 0.014 | alisertib 0.044 | [9] 0.023 | gefitinib 0.043

MCL1 (UniProt Q07820)
inactive: vemurafenib 0.065 | [1] -0.126 | barasertib 0.105 | [2] 0.214 | volasertib -0.147 | [3] 0.018 | [4] -0.169 | [5] 0.017 | saracatinib -0.061 | sotrastaurin -0.013 | alvocidib -0.041 | Tubastatin A 0.003 | [6] -0.015 | defactinib 0.021 | [7] -0.08 | encorafenib 0.107 | [8] -0.024 | alisertib 0.057 | [9] -0.135 | gefitinib -0.085

MEMO1 (UniProt Q9Y316)
inactive: vemurafenib 0.014 | [1] -0.004 | barasertib -0.02 | [2] 0.014 | volasertib -0.01 | [3] 0.05 | [4] 0.003 | [5] -0.003 | saracatinib -0.061 | sotrastaurin -0.017 | alvocidib -0.012 | Tubastatin A -0.004 | [6] 0.02 | defactinib -0.025 | [7] -0.043 | encorafenib -0.02 | [8] -0.044 | alisertib -0.003 | [9] -0.022 | gefitinib -0.056

METAP1 (UniProt P53582)
inactive: vemurafenib -0.034 | [1] 0 | barasertib 0.004 | [2] -0.008 | volasertib -0.028 | [3] -0.001 | [4] -0.27 | [5] 0.095 | saracatinib -0.044 | sotrastaurin -0.03 | alvocidib 0.012 | Tubastatin A 0.002 | [6] -0.013 | defactinib -0.011 | [7] -0.015 | encorafenib -0.024 | [8] -0.179 | alisertib -0.012 | [9] -0.003 | gefitinib 0.031

MED8 isoform 2 (UniProt Q96G25)
inactive: vemurafenib -0.022 | [1] 0.018 | barasertib 0.081 | [2] -0.051 | volasertib -0.003 | [3] 0.013 | [4] 0.214 | [5] -0.092 | saracatinib -0.002 | sotrastaurin 0.091 | alvocidib 0.026 | Tubastatin A -0.048 | [6] 0.023 | defactinib -0.009 | [7] 0.045 | encorafenib 0.056 | [8] -0.113 | alisertib -0.07 | [9] 0.059 | gefitinib -0.038

MBOAT7 (UniProt Q96N66)
inactive: vemurafenib -0.035 | [1] 0 | barasertib 0.037 | [2] 0.022 | volasertib 0.155 | [3] 0.006 | [4] -0.096 | [5] 0.03 | saracatinib 0.028 | sotrastaurin -0.002 | alvocidib -0.037 | Tubastatin A 0.066 | [6] 0.068 | defactinib -0.016 | [7] 0.027 | encorafenib 0.013 | [8] 0.032 | alisertib 0.022 | [9] -0.004 | gefitinib -0.037

MEAK7 (UniProt Q6P9B6)
inactive: vemurafenib -0.045 | [1] 0.034 | barasertib -0.033 | [2] -0.026 | volasertib -0.052 | [3] -0.009 | [4] 0.034 | [5] 0.01 | saracatinib 0.021 | sotrastaurin 0.006 | alvocidib -0.019 | Tubastatin A 0.027 | [6] -0.025 | defactinib 0.008 | [7] 0.019 | encorafenib 0.044 | [8] 0.042 | alisertib 0.044 | [9] -0.012 | gefitinib -0.052

Two successive records already listed:
MEMO1 (UniProt Q9Y316)
inactive: vemurafenib 0.014 | [1] -0.004 | barasertib -0.02 | [2] 0.014 | volasertib -0.01 | [3] 0.05 | [4] 0.003 | [5] -0.003 | saracatinib -0.061 | sotrastaurin -0.017 | alvocidib -0.012 | Tubastatin A -0.004 | [6] 0.02 | defactinib -0.025 | [7] -0.043 | encorafenib -0.02 | [8] -0.044 | alisertib -0.003 | [9] -0.022 | gefitinib -0.056

METAP1 (UniProt P53582)
inactive: vemurafenib -0.034 | [1] 0 | barasertib 0.004 | [2] -0.008 | volasertib -0.028 | [3] -0.001 | [4] -0.27 | [5] 0.095 | saracatinib -0.044 | sotrastaurin -0.03 | alvocidib 0.012 | Tubastatin A 0.002 | [6] -0.013 | defactinib -0.011 | [7] -0.015 | encorafenib -0.024 | [8] -0.179 | alisertib -0.012 | [9] -0.003 | gefitinib 0.031

Next part

MED17 (UniProt Q9NVC6)
inactive: vemurafenib 0.028 | [1] 0.007 | barasertib 0.004 | [2] -0.023 | volasertib -0.02 | [3] 0.002 | [4] -0.037 | [5] 0.013 | saracatinib 0.01 | sotrastaurin 0.031 | alvocidib -0.001 | Tubastatin A -0.093 | [6] 0.025 | defactinib -0.035 | [7] -0.019 | encorafenib 0.03 | [8] -0.017 | alisertib -0.012 | [9] 0.023 | gefitinib -0.015

MCAT (UniProt Q8IVS2)
inactive: vemurafenib -0.033 | [1] 0.063 | barasertib -0.01 | [2] -0.026 | volasertib -0.013 | [3] 0.007 | [4] -0.038 | [5] 0.046 | saracatinib -0.004 | sotrastaurin 0.019 | alvocidib 0.036 | Tubastatin A 0.004 | [6] 0.227 | defactinib 0.037 | [7] -0.034 | encorafenib 0.035 | [8] 0.019 | alisertib -0.029 | [9] 0.015 | gefitinib 0.07

MFSD1 isoform 6 (UniProt Q9H3U5)
inactive: vemurafenib 0.1 | [1] 0.006 | barasertib -0.013 | [2] -0.049 | volasertib 0.02 | [3] 0.075 | [4] -0.012 | [5] 0.062 | saracatinib 0.011 | sotrastaurin -0.035 | alvocidib 0.033 | Tubastatin A -0.052 | [6] 0.038 | defactinib -0.072 | [7] 0.028 | encorafenib 0.015 | [8] -0.029 | alisertib 0.064 | [9] -0.008 | gefitinib 0.018

METTL18 (UniProt O95568)
inactive: vemurafenib 0.024 | [1] 0.065 | barasertib 0.155 | [2] -0.021 | volasertib -0.008 | [3] -0.013 | [4] -0.027 | [5] 0.036 | saracatinib -0.019 | sotrastaurin 0.04 | alvocidib -0.035 | Tubastatin A -0.006 | [6] 0.025 | defactinib 0.038 | [7] 0.083 | encorafenib 0.002 | [8] -0.057 | alisertib 0.04 | [9] -0.021 | gefitinib -0.027

MEIS2 (UniProt O14770)
inactive: vemurafenib 0.049 | [1] 0.027 | barasertib 0.122 | [2] 0.103 | volasertib -0.006 | [3] 0.013 | [4] -0.009 | [5] 0.012 | saracatinib 0.158 | sotrastaurin 0.044 | alvocidib -0.062 | Tubastatin A -0.065 | [6] 0.027 | defactinib 0.056 | [7] 0.053 | encorafenib -0.055 | [8] 0.154 | alisertib 0.001 | [9] -0.006 | gefitinib -0.036

MED30 (UniProt Q96HR3)
inactive: vemurafenib -0.041 | [1] 0.028 | barasertib 0.053 | [2] -0.032 | volasertib 0.006 | [3] 0.011 | [4] -0.002 | [5] 0.038 | saracatinib 0.014 | sotrastaurin 0.04 | alvocidib -0.004 | Tubastatin A -0.015 | [6] 0.012 | defactinib 0.083 | [7] 0.053 | encorafenib 0.003 | [8] -0.129 | alisertib -0.012 | [9] -0.012 | gefitinib 0.018

METTL3 (UniProt Q86U44)
inactive: vemurafenib 0.005 | [1] 0.014 | barasertib 0.007 | [2] 0.032 | volasertib -0.013 | [3] 0.007 | [4] -0.001 | [5] -0.021 | saracatinib 0.006 | sotrastaurin -0.023 | alvocidib -0.014 | Tubastatin A -0.009 | [6] 0.036 | defactinib -0.015 | [7] -0.007 | encorafenib 0.011 | [8] 0.014 | alisertib -0.024 | [9] 0.013 | gefitinib 0.023
